One assay concerns the target T1, GST-Dpb2 (S. cerevisiae) (UniProt P24482).
T1 sequence: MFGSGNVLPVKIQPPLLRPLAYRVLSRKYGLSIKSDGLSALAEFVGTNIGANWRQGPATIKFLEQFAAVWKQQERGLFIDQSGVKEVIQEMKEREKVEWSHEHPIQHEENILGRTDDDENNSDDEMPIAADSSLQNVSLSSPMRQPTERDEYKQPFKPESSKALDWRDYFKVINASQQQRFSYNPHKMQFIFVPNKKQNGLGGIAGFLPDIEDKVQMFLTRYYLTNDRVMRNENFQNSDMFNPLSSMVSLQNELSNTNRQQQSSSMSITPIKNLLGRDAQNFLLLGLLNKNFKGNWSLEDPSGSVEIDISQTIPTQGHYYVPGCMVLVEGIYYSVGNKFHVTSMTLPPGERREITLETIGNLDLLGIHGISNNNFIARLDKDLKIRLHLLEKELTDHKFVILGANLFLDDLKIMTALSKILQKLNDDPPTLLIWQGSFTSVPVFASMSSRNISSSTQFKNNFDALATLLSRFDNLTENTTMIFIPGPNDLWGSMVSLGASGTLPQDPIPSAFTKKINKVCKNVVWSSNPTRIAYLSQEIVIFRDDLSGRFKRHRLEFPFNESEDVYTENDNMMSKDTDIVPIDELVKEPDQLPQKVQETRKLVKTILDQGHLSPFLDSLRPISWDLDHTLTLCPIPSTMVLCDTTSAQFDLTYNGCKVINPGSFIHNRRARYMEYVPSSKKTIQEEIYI
Put plainly: pull-down; GST-tagged subunit (GST-Pol2, GST-Dpb2 or GST–Dpb2-201) co-over-expressed in S. cerevisiae PY116 with the remaining subunits; lysate, ammonium sulfate, phosphocellulose, then glutathione sepharose; washed with 20 column volumes Buffer B (25 mM Hepes-NaOH pH 7.6, 10% glycerol), eluted with 20 mM glutathione; colloidal Coomassie-stained 10% SDS-PAGE.

The chains behind the UniProt entries cited, without tags or fusion partners.
UniProt P21951: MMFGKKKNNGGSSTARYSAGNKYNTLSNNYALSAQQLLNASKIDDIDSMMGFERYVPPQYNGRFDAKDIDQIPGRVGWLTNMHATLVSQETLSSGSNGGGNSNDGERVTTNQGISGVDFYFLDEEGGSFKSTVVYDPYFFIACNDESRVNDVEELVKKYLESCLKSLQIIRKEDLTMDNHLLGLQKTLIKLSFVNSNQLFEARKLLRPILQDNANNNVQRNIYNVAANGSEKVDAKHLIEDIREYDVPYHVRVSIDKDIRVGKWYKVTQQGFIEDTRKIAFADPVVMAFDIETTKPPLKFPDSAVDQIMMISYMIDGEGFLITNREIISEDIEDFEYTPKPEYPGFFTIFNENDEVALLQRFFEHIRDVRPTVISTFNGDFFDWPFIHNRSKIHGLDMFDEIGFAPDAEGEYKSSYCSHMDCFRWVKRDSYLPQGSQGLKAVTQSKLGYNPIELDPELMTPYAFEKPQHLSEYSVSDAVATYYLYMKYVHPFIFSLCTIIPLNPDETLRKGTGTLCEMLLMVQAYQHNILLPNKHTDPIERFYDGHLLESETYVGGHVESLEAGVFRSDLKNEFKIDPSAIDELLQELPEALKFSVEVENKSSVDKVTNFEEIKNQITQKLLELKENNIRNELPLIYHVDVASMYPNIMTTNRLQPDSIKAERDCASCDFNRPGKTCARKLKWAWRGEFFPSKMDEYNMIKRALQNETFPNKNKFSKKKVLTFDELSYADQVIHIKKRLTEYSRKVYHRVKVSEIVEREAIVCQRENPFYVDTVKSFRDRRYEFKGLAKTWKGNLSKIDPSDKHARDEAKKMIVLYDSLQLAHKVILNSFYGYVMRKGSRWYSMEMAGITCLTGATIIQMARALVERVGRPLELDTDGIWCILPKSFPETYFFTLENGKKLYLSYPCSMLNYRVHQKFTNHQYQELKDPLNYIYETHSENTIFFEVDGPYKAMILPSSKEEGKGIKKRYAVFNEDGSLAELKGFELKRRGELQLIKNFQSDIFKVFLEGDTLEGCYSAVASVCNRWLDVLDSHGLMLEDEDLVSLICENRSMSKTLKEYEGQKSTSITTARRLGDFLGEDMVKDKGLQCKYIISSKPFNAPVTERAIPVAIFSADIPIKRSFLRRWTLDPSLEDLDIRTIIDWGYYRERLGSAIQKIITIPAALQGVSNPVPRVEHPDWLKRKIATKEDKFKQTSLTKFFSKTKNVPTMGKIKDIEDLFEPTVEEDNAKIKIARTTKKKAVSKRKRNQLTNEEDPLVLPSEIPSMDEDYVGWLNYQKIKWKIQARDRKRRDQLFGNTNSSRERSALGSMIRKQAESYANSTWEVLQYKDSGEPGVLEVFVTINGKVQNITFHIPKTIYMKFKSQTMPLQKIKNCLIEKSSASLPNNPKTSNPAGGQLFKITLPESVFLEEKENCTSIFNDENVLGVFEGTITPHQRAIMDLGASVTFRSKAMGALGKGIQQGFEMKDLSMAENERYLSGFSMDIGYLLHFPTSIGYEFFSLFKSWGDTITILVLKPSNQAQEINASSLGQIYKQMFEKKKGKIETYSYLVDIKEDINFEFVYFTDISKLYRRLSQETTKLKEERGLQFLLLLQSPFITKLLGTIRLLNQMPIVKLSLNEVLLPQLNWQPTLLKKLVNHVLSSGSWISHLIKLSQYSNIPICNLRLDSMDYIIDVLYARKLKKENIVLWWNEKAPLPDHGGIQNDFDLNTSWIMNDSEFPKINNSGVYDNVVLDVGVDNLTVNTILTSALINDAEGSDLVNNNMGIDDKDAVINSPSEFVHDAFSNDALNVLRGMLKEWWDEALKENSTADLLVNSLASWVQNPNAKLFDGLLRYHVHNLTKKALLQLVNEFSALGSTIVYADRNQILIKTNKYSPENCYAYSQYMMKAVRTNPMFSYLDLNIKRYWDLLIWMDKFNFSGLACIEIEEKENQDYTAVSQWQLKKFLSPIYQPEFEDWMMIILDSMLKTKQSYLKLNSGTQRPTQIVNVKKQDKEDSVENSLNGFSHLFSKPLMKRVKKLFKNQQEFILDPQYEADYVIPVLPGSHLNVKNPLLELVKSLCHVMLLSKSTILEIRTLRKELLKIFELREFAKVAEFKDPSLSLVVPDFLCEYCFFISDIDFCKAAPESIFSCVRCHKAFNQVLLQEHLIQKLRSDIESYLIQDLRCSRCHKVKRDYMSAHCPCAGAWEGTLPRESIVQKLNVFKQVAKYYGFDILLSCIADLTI

A further assay has as its target GST-Pol2 (S. cerevisiae) (UniProt P21951). Described as above.

No constants are given. Whether binding was seen depends on the method and setting. In cells and extracts the contact can be indirect. Some results given as binding are weak or reduced against the parent protein; the word gives no strength. For some of these results: Tags and fused reporters may be left off the sequences shown.

As for “Pol2 (from UniProt P21951 1-2222) (enzyme)”, in the assay with GST-Dpb2 (S. cerevisiae), the binding entry is “binds”.

B1: Dpb2 (protein, UniProt P24482 1-689)
chain: T1 sequence
As to B1, the binding result with GST-Pol2 (S. cerevisiae) was “binds”.

B2: Dpb4 (natural protein, S. cerevisiae, UniProt Q04603 1-196, looked up)
chain: MPPKGWRKDAQGNYPTTSYIKEQENITIQDLLFPKSTIVNLAREVPQQSGKKLLINKDASLALQRGATVFVNHLLLFAREIAKSQDKKSCSVDDVLSALDHIGHSALKGPVRDKLDEYQAAVEQRKKEKLDSGEVDADGDIDMGEDKENVPVEKVKEHDEIEEQGDALQDVEESSEKKQKTESQDVETRVQNLEQT
notes: Dpb4, subunit of DNA polymerase epsilon, S. cerevisiae; over-expression vector pJL5 (Dpb3 and Dpb4); source: S. cerevisiae pY116, galactose-induced over-expression (pJL5), co-expressed with the other Pol ε subunits
For B2, the binding result with GST-Pol2 (S. cerevisiae) is “binds”.

B3: Dpb3 (natural protein, S. cerevisiae, UniProt P27344 1-201, looked up)
chain: MSNLVKEKAPVFPISKVKKIAKCDPEYVITSNVAISATAFAAELFVQNLVEESLVLAQLNSKGKTSLRLSLNSIEECVEKRDNFRFLEDAIKQLKKNSALDKKRELNMQPGRSDQEVVIEEPELHEDDGVEEEEEEDEVSEEEEPVHNEELLDDSKDQQNDKSTRSVASLLSRFQYKSALDVGEHSDSSDIEVDHTKSTDP
notes: Dpb3, subunit of DNA polymerase epsilon, S. cerevisiae; over-expression vector pJL5 (Dpb3 and Dpb4); source: S. cerevisiae pY116, galactose-induced over-expression (pJL5), co-expressed with the other Pol ε subunits
As to B3, in the assay with GST-Pol2 (S. cerevisiae), the binding entry was “binds”.
